# From the supplement of paper PMC6331611
# “And” between values parts separate entries of the source, which are not always exact repeats. Equal entries are not always repeated. ± gives the standard deviation of the averaged measurements. The full ranking holds about 1,600 compounds; the median of “normalized growth (OD600, IQM-normalized) in LPM” is about 1, and the lowest 2% start at about 0.014. This is one part of the list.
# System: Salmonella enterica serovar Typhimurium SL1344
# Assay: normalized growth (OD600, IQM-normalized) in LPM (fraction of plate interquartile mean); higher = more bacterial growth (less inhibition)
# Conditions: LPM pH 5.8; 10 µM; 16 h
row,SMILES,normalized growth
1,O=C(O)Cc1cc(I)c(Oc2ccc(O)c(I)c2)c(I)c1,1.05 ± 0.0084
2,CC(=O)OCC(=O)[C@@]12OC3(CCCC3)O[C@@H]1C[C@H]1[C@@H]3CCC4=CC(=O)C=C[C@]4(C)[C@@]3(F)[C@@H](O)C[C@@]12C,1.07 ± 0.022
3,Cc1oc(=O)oc1CN1CCN(c2cc3c(cc2F)c(=O)c(C(=O)O)c2n3C(C)S2)CC1 (stereo unspecified),0.00846 ± 7.6e-05
4,C=COCC(F)(F)F,0.991 ± 0.044
5,N[C@@H](CC(=O)N1CCn2c(nnc2C(F)(F)F)C1)Cc1cc(F)c(F)cc1F,1.026 ± 0.0062
6,O=C(Nc1ccccc1)OCC(CN1CCCCC1)OC(=O)Nc1ccccc1 (stereo unspecified),0.903 ± 0.047
7,N=C(N)c1ccc(N=NNc2ccc(C(=N)N)cc2)cc1,0.766 ± 0.035
8,CO/N=C(\C(=O)N[C@@H]1C(=O)N2C(C(=O)O)=C(CSC(=O)c3ccco3)CS[C@H]12)c1csc(N)n1,0.11 ± 0.0058
9,CCCC(=O)Nc1ccc(OCC(O)CNC(C)C)c(C(C)=O)c1 (stereo unspecified),0.963 ± 0.035
10,C[C@@H]1O[C@@H](OC[C@H]2O[C@@H](Oc3c(-c4ccc(O)c(O)c4)oc4cc(O)cc(O)c4c3=O)[C@H](O)[C@@H](O)[C@@H]2O)[C@H](O)[C@H](O)[C@H]1O,0.893 ± 0.13
11,COc1ccc2nc3cc(Cl)ccc3c(Nc3cc(CN4CCCC4)c(O)c(CN4CCCC4)c3)c2n1,0.69 ± 0.061
12,Nc1nc(=O)c2c([nH]1)NCC(CNc1ccc(C(=O)N[C@@H](CCC(=O)O)C(=O)O)cc1)N2C=O (stereo partly specified),0.948 ± 0.014
13,C=CCc1ccccc1OCC(O)CNC(C)C (stereo unspecified),0.895 ± 0.047
14,NC[C@H]1CC[C@H](C(=O)O)CC1,0.948 ± 0.047
15,CCCCOc1ccc(CC(=O)NO)cc1,0.819 ± 0.029
16,CC(=O)OC(C)C[N+](C)(C)C (stereo unspecified),1.12 ± 0.02
17,O=C(O)c1cc(=O)c2c(OCC(O)COc3cccc4oc(C(=O)O)cc(=O)c34)cccc2o1,0.977 ± 0.079
18,CC(=O)c1ccc2c(c1)N(CCCN1CCN(CCO)CC1)c1ccccc1S2,0.869 ± 0.053
19,OC[C@H]1O[C@H](O[C@H]2[C@H](O)[C@@H](O)C(O)O[C@@H]2CO)[C@H](O)[C@@H](O)[C@@H]1O (stereo partly specified),1.06 ± 0.12
20,CN(C)CCC(c1ccccc1)c1ccccn1 (stereo unspecified),0.946 ± 0.076
21,CC(C)CCC[C@@H](C)[C@H]1CC[C@H]2[C@@H]3CC=C4C[C@@H](O)CC[C@]4(C)[C@H]3CC[C@]12C,1.08 ± 0.013
22,CCN(CC)C(=O)N1CCN(C)CC1,0.954 ± 0.031
23,O=P(O)(O)C(O)(Cc1cccnc1)P(=O)(O)O,1.06 ± 0.059
24,CC(=O)[C@H]1CC[C@H]2[C@@H]3CC=C4C[C@@H](OC(=O)CCC(=O)O)CC[C@]4(C)[C@H]3CC[C@]12C,1.02 ± 0.027
25,CC(CCc1ccc(O)cc1)NCC(O)c1ccc(O)cc1 (stereo unspecified),0.916 ± 0.069
26,CCN(CCCc1ccccc1)CCCc1ccccc1,1.11 ± 0.048

row,SMILES,normalized growth
1,CCCCC(CC)COC(=O)c1ccccc1O (stereo unspecified),0.9742 ± 0.005
2,CC[C@]1(O)C[C@@H]2CN(CCc3c([nH]c4ccccc34)[C@@](C(=O)OC)(c3cc4c(cc3OC)N(C)[C@H]3[C@@](O)(C(=O)OC)[C@H](OC(C)=O)[C@]5(CC)C=CCN6CC[C@]43[C@@H]65)C2)C1,1.06 ± 0.075
3,NC(=O)NO,0.991 ± 0.043
4,Clc1ccccc1C(c1ccccc1)(c1ccccc1)n1ccnc1,1.19 ± 0.017
5,CO/N=C1\CN(c2nc3c(cc2F)c(=O)c(C(=O)O)cn3C2CC2)CC1CN (stereo unspecified),0.0206 ± 0.00035
6,Clc1ccc(COC(Cn2ccnc2)c2ccc(Cl)cc2Cl)cc1 (stereo unspecified),0.807 ± 0.051
7,CCCC(C(=O)OCCN(CC)CC)(c1ccccc1)c1ccccc1,0.981 ± 0.053
8,O=S(=O)(O)CCSSCCS(=O)(=O)O,1.02 ± 0.069
9,CN1CCC[C@H]1c1cccnc1,1.05 ± 0.011
10,Cc1cc(CC(C)CC(C)(C)C)n(O)c(=O)c1 (stereo unspecified),0.0347 ± 0.011
11,NC(=O)c1cccnc1,0.988 ± 0.026
12,Nc1nccs1,0.94 ± 0.028
13,Cn1c(=O)c2c(ncn2CC(O)CO)n(C)c1=O (stereo unspecified),1.11 ± 0.061
14,CCCc1nc(C(C)(C)O)c(C(=O)OCc2oc(=O)oc2C)n1Cc1ccc(-c2ccccc2-c2nnn[nH]2)cc1,1.005 ± 0.0069
15,C=C(NC(=O)C(=C)NC(=O)c1csc(C2=N[C@@H]3c4csc(n4)[C@H]4NC(=O)c5csc(n5)[C@H]([C@](C)(O)[C@@H](C)O)NC(=O)[C@H]5CSC(=N5)/C(=C/C)NC(=O)[C@H]([C@@H](C)O)NC(=O)c5csc(n5)[C@]3(CC2)NC(=O)[C@H](C)NC(=O)C(=C)NC(=O)[C@H](C)NC(=O)[C@H]([C@@H](C)CC)N[C@@H]2C=Cc3c([C@H](C)O)cc(nc3[C@H]2O)C(=O)O[C@@H]4C)n1)C(N)=O,1 ± 0.09
16,O=C(O)CCc1nc2ccccc2[nH]1,1.05 ± 0.12
17,C[C@@H]1CC2C3C[C@H](F)C4=CC(=O)C=C[C@]4(C)[C@@]3(F)[C@@H](O)C[C@]2(C)[C@@]1(O)C(=O)COC(=O)C(C)(C)C (stereo partly specified),1.04 ± 0.12
18,CCCCCCCCCCCCCCCC[N+](C)(C)C,0.982 ± 0.038
19,NC(=O)C1(N2CCCCC2)CCN(CCCC(=O)c2ccc(F)cc2)CC1,1.02 ± 0.051
20,CC1=C(C(=O)O)N2C(=O)[C@@H](NC(=O)[C@H](N)c3ccc(O)cc3)[C@H]2SC1,1.06 ± 0.054
21,CC(C)(Oc1ccc(C2CC2(Cl)Cl)cc1)C(=O)O (stereo unspecified),0.881 ± 0.036
22,Nc1ccc(S(N)(=O)=O)cc1,1.01 ± 0.049
23,CCOc1nc2cccc(C(=O)OC(C)OC(=O)OC3CCCCC3)c2n1Cc1ccc(-c2ccccc2-c2nn[nH]n2)cc1 (stereo unspecified),0.878 ± 0.018
24,CC(CCc1ccc(O)cc1)NCCc1ccc(O)c(O)c1 (stereo unspecified),0.837 ± 0.066
25,CC[C@]12CCCN3CCc4c(n(c5ccccc45)[C@@](O)(C(=O)OC)C1)[C@@H]32,0.962 ± 0.19
26,CCC(C)(C)c1ccc(CC(C)CN2C[C@@H](C)O[C@@H](C)C2)cc1 (stereo partly specified),1.02 ± 0.017

row,SMILES,normalized growth
1,Nc1nc(N)nc(-c2cc(Cl)ccc2Cl)n1,1.02 ± 0.018
2,CCN1CCCC1CNC(=O)c1cc(S(=O)(=O)CC)c(N)cc1OC (stereo unspecified),1 ± 0.02
3,S=P(N1CC1)(N1CC1)N1CC1,1.12 ± 0.039
4,CCCCOc1ccc(OCCCN2CCOCC2)cc1,0.817 ± 0.045
5,CC1CCc2cc(F)cc3c(=O)c(C(=O)O)cn1c23 (stereo unspecified),0.0174 ± 0.0072
6,CC(C)c1nc(CN(C)C(=O)N[C@H](C(=O)N[C@@H](Cc2ccccc2)C[C@H](O)[C@H](Cc2ccccc2)NC(=O)OCc2cncs2)C(C)C)cs1,0.886 ± 0.029
7,COc1ccccc1OCCNCC(O)COc1cccc2[nH]c3ccccc3c12 (stereo unspecified),0.925 and 1.17
8,CC(C)[C@H]1CC[C@H](C(=O)N[C@H](Cc2ccccc2)C(=O)O)CC1,0.939 ± 0.041
9,CC(=O)Oc1cccc(C(=O)O)c1OC(C)=O,0.912 ± 0.079
10,CCn1cc(C(=O)O)c(=O)c2cc(F)c(N3CCNCC3)cc21,0.0247 ± 0.0053
11,CCOC(=O)C1=C(C)NC(C)=C(C(=O)OC)C1c1cccc([N+](=O)[O-])c1 (stereo unspecified),1.1 ± 0.05
12,CC1(C)S[C@@H]2[C@H](N3C(=O)[C@@H](c4ccccc4)NC3(C)C)C(=O)N2[C@H]1C(=O)O,0.976 ± 0.053
13,NS(=O)(=O)c1cc2c(cc1C(F)(F)F)NC(Cc1ccccc1)NS2(=O)=O (stereo unspecified),1.15 ± 0.013
14,CC(CN1c2ccccc2Sc2ccccc21)N(C)C (stereo unspecified),1.06 ± 0.05
15,O=C(c1ccc(OCCN2CCCCC2)cc1)c1c(-c2ccc(O)cc2)sc2cc(O)ccc12,0.973 ± 0.019
16,Cc1onc(-c2ccccc2)c1C(=O)N[C@@H]1C(=O)N2[C@@H]1SC(C)(C)[C@@H]2C(=O)O,0.999 ± 0.063
17,CCCC(CCC)C(=O)O,0.955 ± 0.071
18,CN(C)CCCC1(c2ccc(F)cc2)OCc2cc(C#N)ccc21 (stereo unspecified),1.1 ± 0.062
19,CNC(=O)c1c(I)c(NC(C)=O)c(I)c(C(=O)O)c1I,0.957 ± 0.015
20,CCC(=O)NCC[C@@H]1CCc2ccc3c(c21)CCO3,1.11 ± 0.046
21,OCC(O)CN1CCN(c2ccccc2)CC1 (stereo unspecified),1.02 ± 0.095
22,CC(O)CC(C)(C)O (stereo unspecified),1.058 ± 0.006
23,COc1ccc2cc1Oc1ccc(cc1)C[C@H]1c3c(cc4c(c3Oc3cc5c(cc3OC)CCN(C)[C@@H]5C2)OCO4)CCN1C,0.938 ± 0.024
24,CCOC(=O)c1ccc(O)cc1,1.02 ± 0.045
25,Cc1c(OCC(F)(F)F)ccnc1C[S+]([O-])c1nc2ccccc2[nH]1 (stereo unspecified),1.054 ± 0.0058
26,O=C([O-])C(O)[C@H](O)[C@@H](O)[C@H](O)[C@H](O)CO.O=C([O-])C(O)[C@H](O)[C@@H](O)[C@H](O)[C@H](O)CO.[Ca+2] (stereo partly specified),0.966 ± 0.061

# Filtered by structure: the entries above with two or more sulfur atoms.
row,SMILES,normalized growth
8,CO/N=C(\C(=O)N[C@@H]1C(=O)N2C(C(=O)O)=C(CSC(=O)c3ccco3)CS[C@H]12)c1csc(N)n1,0.11 ± 0.0058
8,O=S(=O)(O)CCSSCCS(=O)(=O)O,1.02 ± 0.069
15,C=C(NC(=O)C(=C)NC(=O)c1csc(C2=N[C@@H]3c4csc(n4)[C@H]4NC(=O)c5csc(n5)[C@H]([C@](C)(O)[C@@H](C)O)NC(=O)[C@H]5CSC(=N5)/C(=C/C)NC(=O)[C@H]([C@@H](C)O)NC(=O)c5csc(n5)[C@]3(CC2)NC(=O)[C@H](C)NC(=O)C(=C)NC(=O)[C@H](C)NC(=O)[C@H]([C@@H](C)CC)N[C@@H]2C=Cc3c([C@H](C)O)cc(nc3[C@H]2O)C(=O)O[C@@H]4C)n1)C(N)=O,1 ± 0.09
6,CC(C)c1nc(CN(C)C(=O)N[C@H](C(=O)N[C@@H](Cc2ccccc2)C[C@H](O)[C@H](Cc2ccccc2)NC(=O)OCc2cncs2)C(C)C)cs1,0.886 ± 0.029
13,NS(=O)(=O)c1cc2c(cc1C(F)(F)F)NC(Cc1ccccc1)NS2(=O)=O (stereo unspecified),1.15 ± 0.013

# The listing continues:

row,SMILES,normalized growth
1,CC(C)(C)NCC(O)c1ccc(O)c(CO)c1 (stereo unspecified),0.99 ± 0.059
2,CCC1(C)CC(=O)NC1=O (stereo unspecified),0.9521 ± 0.008
3,NC1CCN(c2c(F)cc3c(=O)c(C(=O)O)cn(C4CC4)c3c2Cl)C1 (stereo unspecified),0.0132 ± 0.00024
4,CC(=O)Nc1ccc(OC(C)=O)cc1,1.05 ± 0.08
5,CC(NCCc1ccc(O)cc1)C(O)c1ccc(O)cc1 (stereo unspecified),0.839 ± 0.025
6,CCCNC(C)(C)COC(=O)c1ccccc1,0.983 ± 0.027
7,O=S(=O)(c1cccc2cnccc12)N1CCCNCC1,1.11 ± 0.028
8,CCc1nn(CCCN2CCN(c3cccc(Cl)c3)CC2)c(=O)n1CCOc1ccccc1,0.96 ± 0.029
9,CCOC(=O)CC(=O)N1CCSC1COc1ccccc1OC (stereo unspecified),1.07 ± 0.025
10,CCC(C)(C)C(=O)O[C@H]1C[C@@H](C)C=C2C=C[C@H](C)[C@H](CC[C@@H]3C[C@@H](O)CC(=O)O3)[C@H]21,0.777 ± 0.071
11,C[C@@H]1CN(c2c(F)c(F)c3c(=O)c(C(=O)O)cn(C4CC4)c3c2F)C[C@H](C)N1,0.0487 ± 0.0099
12,CC(O)(CC(=O)O)CC(=O)O,0.921 ± 0.018
13,NNC(=O)c1ccncc1.Nc1ccc(C(=O)O)c(O)c1,0.825 ± 0.0087
14,CCCc1nn(C)c2c(=O)[nH]c(-c3cc(S(=O)(=O)N4CCN(C)CC4)ccc3OCC)nc12,1.11 ± 0.04
15,O=[N+]([O-])c1ccc(O)c2ncccc12,0.00762 ± 0.00015
16,O=C1O[C@H]([C@@H](O)CO)C(O)=C1O,0.957 ± 0.024
17,Clc1ccc(C(c2ccccc2Cl)C(Cl)Cl)cc1 (stereo unspecified),1.03 ± 0.016
18,OCCc1ccccc1,1.12 ± 0.033
19,O=C(O)c1ccccc1Nc1cccc(C(F)(F)F)c1,0.9784 ± 0.0073
20,CC(=O)Nc1ccc(S(=O)(=O)c2ccc(NC(C)=O)cc2)cc1,0.889 ± 0.067
21,Nc1ccc(C(=O)O)c(O)c1,0.81 ± 0.048
22,Nc1nc(/C(=C/CC(=O)O)C(=O)N[C@@H]2C(=O)N3C(C(=O)O)=CCS[C@H]23)cs1,0.154 ± 0.061
23,CCC(=O)O[C@]1(C(=O)SCF)[C@H](C)C[C@H]2[C@@H]3C[C@H](F)C4=CC(=O)C=C[C@]4(C)[C@@]3(F)[C@@H](O)C[C@@]21C,1.05 ± 0.04
